# Test results as given in the supplement of paper PMC6411743.
# By UniProt entry, the sequences of proteins in these tests, tags left out. Where a name states a change or a piece, a line headed by the entry shows the natural chain unless it says otherwise.
# UniProt Q8NDX1: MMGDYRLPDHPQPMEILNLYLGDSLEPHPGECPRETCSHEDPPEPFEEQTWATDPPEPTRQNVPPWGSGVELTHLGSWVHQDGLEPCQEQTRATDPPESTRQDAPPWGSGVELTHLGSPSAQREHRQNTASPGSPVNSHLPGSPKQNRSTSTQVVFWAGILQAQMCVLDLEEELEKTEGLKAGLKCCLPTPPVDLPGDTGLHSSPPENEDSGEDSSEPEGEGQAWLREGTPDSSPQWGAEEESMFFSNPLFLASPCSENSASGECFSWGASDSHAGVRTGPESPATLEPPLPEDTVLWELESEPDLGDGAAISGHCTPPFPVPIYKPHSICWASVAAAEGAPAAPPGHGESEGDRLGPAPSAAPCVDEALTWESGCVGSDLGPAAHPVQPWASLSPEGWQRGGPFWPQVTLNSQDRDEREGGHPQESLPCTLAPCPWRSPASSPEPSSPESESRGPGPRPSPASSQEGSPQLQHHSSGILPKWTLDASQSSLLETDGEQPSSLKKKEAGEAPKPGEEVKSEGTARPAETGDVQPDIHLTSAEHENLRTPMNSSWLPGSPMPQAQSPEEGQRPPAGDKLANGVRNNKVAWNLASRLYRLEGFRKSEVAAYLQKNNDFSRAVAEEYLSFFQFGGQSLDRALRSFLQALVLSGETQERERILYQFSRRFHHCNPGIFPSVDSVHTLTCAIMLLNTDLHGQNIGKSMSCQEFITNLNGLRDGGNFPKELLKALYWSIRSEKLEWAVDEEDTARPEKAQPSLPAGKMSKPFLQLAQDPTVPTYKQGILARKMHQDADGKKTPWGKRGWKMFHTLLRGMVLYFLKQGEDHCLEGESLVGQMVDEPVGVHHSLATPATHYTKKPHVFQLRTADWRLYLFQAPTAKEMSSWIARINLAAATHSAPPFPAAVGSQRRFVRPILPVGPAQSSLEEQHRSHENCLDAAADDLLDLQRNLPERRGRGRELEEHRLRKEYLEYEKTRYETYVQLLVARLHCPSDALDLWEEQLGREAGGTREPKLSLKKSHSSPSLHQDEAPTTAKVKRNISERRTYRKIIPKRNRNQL
# UniProt Q8TDQ7: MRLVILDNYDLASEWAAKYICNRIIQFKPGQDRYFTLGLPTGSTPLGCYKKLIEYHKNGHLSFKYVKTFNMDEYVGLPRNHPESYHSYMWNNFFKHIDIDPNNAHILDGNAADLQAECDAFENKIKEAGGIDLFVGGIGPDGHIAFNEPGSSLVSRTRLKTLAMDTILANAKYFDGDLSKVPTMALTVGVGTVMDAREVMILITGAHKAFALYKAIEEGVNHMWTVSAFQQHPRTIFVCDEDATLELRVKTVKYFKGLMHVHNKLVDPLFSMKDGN
# UniProt Q8IY22: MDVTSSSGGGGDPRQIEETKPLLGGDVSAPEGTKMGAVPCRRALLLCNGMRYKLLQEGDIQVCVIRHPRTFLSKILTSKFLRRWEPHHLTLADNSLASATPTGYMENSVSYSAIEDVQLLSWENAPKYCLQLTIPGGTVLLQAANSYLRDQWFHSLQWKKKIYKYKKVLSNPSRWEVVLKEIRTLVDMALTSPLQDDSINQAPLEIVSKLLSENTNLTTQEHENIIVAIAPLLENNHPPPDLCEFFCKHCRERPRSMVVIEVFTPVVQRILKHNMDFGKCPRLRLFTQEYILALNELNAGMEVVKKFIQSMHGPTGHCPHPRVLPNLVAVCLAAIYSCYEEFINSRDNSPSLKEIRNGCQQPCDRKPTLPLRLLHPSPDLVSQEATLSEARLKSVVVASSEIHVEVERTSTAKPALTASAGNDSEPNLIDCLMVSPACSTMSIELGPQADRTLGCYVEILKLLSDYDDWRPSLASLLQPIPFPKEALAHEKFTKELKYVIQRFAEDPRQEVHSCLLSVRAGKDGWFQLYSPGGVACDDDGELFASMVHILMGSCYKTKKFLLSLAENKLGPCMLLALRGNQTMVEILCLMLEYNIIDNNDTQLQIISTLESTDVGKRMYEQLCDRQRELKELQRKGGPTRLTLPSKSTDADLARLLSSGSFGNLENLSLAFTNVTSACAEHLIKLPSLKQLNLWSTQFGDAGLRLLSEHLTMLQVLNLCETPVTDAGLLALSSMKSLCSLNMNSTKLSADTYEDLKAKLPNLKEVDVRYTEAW
# UniProt Q8NE01: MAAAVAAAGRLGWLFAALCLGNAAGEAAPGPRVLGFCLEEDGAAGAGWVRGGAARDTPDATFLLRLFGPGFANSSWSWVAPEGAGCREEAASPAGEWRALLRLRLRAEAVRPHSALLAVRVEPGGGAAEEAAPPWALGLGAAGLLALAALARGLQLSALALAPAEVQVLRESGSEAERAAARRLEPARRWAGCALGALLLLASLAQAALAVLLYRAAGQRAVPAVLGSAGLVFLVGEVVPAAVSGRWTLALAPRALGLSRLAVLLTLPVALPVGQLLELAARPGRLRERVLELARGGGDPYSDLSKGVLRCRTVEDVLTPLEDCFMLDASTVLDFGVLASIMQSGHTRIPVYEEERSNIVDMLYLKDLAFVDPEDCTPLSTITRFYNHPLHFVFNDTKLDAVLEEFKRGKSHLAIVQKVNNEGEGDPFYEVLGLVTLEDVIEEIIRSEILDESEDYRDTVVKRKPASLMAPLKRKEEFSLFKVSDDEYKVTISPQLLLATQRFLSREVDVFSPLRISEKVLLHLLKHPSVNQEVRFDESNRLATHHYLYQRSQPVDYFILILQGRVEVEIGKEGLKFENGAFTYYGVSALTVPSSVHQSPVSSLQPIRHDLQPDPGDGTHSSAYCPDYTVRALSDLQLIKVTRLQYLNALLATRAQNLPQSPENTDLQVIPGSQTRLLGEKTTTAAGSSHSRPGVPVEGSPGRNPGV
# UniProt Q8IZ83: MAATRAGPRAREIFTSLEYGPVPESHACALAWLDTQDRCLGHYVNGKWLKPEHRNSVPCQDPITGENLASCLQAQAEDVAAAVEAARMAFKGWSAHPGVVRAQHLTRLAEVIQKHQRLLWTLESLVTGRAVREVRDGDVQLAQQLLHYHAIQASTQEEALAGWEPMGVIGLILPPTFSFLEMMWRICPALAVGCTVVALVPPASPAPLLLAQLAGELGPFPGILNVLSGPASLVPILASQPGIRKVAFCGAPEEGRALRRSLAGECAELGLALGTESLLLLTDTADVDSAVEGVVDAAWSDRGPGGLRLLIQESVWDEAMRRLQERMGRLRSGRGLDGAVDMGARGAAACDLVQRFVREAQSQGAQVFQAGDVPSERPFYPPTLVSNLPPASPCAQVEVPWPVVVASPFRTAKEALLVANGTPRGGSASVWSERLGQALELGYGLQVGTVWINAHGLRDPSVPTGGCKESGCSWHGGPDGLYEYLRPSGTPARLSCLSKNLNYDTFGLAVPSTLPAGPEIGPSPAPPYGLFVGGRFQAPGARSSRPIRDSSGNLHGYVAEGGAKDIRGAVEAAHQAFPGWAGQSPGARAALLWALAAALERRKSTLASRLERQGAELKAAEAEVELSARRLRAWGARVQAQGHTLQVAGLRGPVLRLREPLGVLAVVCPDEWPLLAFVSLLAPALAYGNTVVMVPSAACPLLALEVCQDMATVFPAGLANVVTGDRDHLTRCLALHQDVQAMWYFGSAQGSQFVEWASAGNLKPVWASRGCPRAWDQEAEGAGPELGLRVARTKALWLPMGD
# UniProt Q8IZ73: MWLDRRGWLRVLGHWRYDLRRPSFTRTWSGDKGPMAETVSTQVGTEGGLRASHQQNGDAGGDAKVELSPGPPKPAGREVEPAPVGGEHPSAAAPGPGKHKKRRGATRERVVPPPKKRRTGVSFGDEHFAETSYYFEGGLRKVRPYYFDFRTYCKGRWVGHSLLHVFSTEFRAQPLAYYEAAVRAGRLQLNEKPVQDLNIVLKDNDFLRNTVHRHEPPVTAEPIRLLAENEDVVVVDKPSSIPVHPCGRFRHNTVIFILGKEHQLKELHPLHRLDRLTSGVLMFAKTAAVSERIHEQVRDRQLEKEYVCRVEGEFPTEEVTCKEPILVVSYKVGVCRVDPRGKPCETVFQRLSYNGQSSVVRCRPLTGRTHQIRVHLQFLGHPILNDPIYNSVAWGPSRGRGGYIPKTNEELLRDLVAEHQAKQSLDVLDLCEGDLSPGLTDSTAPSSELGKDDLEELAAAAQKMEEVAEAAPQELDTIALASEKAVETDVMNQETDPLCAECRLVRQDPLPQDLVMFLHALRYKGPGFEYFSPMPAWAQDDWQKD
# UniProt Q8NCN4: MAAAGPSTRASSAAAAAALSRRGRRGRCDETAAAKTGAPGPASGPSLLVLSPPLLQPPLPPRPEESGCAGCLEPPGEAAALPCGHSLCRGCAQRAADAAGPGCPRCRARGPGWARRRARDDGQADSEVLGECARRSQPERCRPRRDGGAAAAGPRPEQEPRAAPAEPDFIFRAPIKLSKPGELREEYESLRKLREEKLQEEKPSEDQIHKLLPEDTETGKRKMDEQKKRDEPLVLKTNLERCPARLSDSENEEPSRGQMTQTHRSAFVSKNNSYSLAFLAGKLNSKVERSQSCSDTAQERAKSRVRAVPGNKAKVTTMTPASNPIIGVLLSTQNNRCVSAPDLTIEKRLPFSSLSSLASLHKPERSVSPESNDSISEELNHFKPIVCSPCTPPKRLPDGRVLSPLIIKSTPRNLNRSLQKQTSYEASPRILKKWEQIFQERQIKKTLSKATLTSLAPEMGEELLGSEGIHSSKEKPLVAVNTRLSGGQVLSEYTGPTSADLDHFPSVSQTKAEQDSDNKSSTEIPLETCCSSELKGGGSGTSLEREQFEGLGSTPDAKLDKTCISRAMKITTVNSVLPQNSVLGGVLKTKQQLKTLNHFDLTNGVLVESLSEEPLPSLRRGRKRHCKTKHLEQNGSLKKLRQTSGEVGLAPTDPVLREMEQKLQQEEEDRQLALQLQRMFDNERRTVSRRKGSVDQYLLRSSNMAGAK
# UniProt Q8NC96: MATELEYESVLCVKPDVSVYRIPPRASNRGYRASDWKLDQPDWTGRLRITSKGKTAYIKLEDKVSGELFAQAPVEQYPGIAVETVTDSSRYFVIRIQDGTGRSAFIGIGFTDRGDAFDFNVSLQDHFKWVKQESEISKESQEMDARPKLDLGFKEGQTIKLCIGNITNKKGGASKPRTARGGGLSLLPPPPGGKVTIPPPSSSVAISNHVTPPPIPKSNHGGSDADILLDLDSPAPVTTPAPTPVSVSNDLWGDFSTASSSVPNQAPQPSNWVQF
# UniProt Q8NCF5: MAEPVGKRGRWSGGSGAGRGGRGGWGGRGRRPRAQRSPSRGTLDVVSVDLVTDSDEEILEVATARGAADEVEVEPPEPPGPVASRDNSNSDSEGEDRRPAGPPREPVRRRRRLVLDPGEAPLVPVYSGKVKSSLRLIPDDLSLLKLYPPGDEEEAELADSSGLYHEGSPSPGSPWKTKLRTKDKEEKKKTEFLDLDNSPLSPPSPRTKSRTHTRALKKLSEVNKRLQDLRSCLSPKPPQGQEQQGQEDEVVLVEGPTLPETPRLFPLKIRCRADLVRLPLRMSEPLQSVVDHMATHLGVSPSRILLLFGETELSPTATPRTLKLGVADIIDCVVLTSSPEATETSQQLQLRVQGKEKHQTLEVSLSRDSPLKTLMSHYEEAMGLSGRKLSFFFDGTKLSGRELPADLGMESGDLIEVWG
# UniProt Q8TF01: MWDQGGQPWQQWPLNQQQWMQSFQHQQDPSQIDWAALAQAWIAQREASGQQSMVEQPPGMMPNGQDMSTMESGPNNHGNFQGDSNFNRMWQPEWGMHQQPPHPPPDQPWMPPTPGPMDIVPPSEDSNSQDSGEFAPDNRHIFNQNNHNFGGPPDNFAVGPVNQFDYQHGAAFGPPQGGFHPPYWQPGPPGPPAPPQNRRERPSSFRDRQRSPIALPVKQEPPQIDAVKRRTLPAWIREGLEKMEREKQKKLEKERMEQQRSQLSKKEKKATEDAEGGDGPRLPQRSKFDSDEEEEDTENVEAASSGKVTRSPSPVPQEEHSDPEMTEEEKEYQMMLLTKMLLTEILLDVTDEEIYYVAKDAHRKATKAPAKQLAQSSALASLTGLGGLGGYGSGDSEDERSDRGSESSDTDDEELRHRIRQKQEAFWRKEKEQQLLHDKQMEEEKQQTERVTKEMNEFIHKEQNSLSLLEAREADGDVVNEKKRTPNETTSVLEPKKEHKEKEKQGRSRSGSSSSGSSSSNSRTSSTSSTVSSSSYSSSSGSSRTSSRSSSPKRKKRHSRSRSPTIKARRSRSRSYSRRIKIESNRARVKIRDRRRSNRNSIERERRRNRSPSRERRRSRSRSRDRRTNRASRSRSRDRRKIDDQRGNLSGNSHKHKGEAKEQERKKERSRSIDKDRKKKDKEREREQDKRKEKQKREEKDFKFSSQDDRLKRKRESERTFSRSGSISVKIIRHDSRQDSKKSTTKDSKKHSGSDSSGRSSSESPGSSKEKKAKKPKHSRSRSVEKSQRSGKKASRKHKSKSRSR
# UniProt Q8N4V1: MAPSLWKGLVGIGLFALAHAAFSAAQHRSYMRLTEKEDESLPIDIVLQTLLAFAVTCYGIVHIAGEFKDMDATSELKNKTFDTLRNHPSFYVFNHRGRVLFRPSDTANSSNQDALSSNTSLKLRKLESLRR
# ± gives the standard deviation of the averaged measurements. Some of the results follow.
# Compound: Nc1nc2c(ncn2[C@@H]2O[C@H](COP(=O)(O)OP(=O)(O)OP(=O)(O)O)[C@@H](O)[C@H]2O)c(=O)[nH]1 [guanosine triphosphate]
# Assay: NP40-soluble protein abundance relative to vehicle (solubility fold change) (ratio); higher = more soluble protein in presence of GTP
# How it was run: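 Values are fold changes against the detergent-processed vehicle, based on vsn-normalised intensities. Jurkat crude lysate was treated at eight concentrations from 0.1 to 10 mM (10 min at room temperature, then 3 min at 37 °C), solubilised with 0.8% NP40 and benzonase, ultracentrifuged and analysed by TMT-labelled LC-MS/MS over three independent experiments.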
Target,NP40-soluble protein abundance (concentration: 0.1mM),NP40-soluble protein abundance (concentration: 0.5mM),NP40-soluble protein abundance (concentration: 1mM),NP40-soluble protein abundance (concentration: 2mM),NP40-soluble protein abundance (concentration: 4mM),NP40-soluble protein abundance (concentration: 6mM),NP40-soluble protein abundance (concentration: 8mM),NP40-soluble protein abundance (concentration: 10mM)
UniProt Q8NHH9 and related entries,1.05 ± 0.09,1.03 ± 0.099,0.994 ± 0.062,1.03 ± 0.1,0.97 ± 0.069,0.953 ± 0.065,0.968 ± 0.057,0.991 ± 0.057
SMC5 (UniProt Q8IY18),1.026 ± 0.0089,1.06 ± 0.036,1.03 ± 0.025,1.02 ± 0.03,1.009 ± 0.0054,1.04 ± 0.019,1.05 ± 0.031,1.03 ± 0.021
FAM126B (UniProt Q8IXS8),1.04 ± 0.041,1.15 ± 0.003,1.14 ± 0.028,1.089 ± 0.0094,1.11 ± 0.017,1.14 ± 0.046,1.16 ± 0.015,1.14 ± 0.052
D2HGDH (UniProt Q8N465),0.973 ± 0.066,0.956 ± 0.051,0.914 ± 0.096,0.968 ± 0.024,0.972 ± 0.034,0.94 ± 0.052,0.923 ± 0.049,0.852 ± 0.096
UniProt Q8NDX1 and related entries,1.01 ± 0.07,1.08 ± 0.1,1.13 ± 0.13,1.07 ± 0.093,1.03 ± 0.11,1.08 ± 0.067,1.14 ± 0.042,1.05 ± 0.14
UniProt Q8TDQ7 and related entries,1.1 ± 0.09,1.1 ± 0.062,0.948 ± 0.035,1.01 ± 0.097,0.997 ± 0.089,0.97 ± 0.049,0.91 ± 0.068,0.939 ± 0.14
UniProt Q86XP3 and related entries,1.01 ± 0.015,1 ± 0.014,1 ± 0.029,1.004 ± 0.008,1.05 ± 0.022,1.04 ± 0.013,1.06 ± 0.03,1.05 ± 0.024
CMIP (UniProt Q8IY22),1.01 ± 0.066,1.02 ± 0.072,0.999 ± 0.065,0.899 ± 0.064,0.894 ± 0.022,0.954 ± 0.029,0.95 ± 0.0079,0.926 ± 0.043
UniProt Q8NE01 and related entries,1.05 ± 0.048,0.991 ± 0.056,0.973 ± 0.028,0.948 ± 0.081,0.965 ± 0.055,0.927 ± 0.076,0.931 ± 0.053,0.896 ± 0.078
UniProt Q8NEB9,0.995 ± 0.041,1.01 ± 0.024,0.999 ± 0.02,1.01 ± 0.03,1.01 ± 0.029,0.992 ± 0.048,0.969 ± 0.045,0.941 ± 0.054
ALDH16A1 (UniProt Q8IZ83),1.11 ± 0.033,1.1 ± 0.076,1.13 ± 0.13,1.15 ± 0.12,1.16 ± 0.17,1.15 ± 0.15,1.16 ± 0.16,1.11 ± 0.15
RPUSD2 (UniProt Q8IZ73),1 ± 0.095,1.03 ± 0.088,0.946 ± 0.06,0.965 ± 0.066,0.957 ± 0.036,0.932 ± 0.058,0.905 ± 0.054,0.94 ± 0.027
UniProt Q8IYJ3 and related entries,1.05 ± 0.041,1.02 ± 0.021,1.02 ± 0.07,1.03 ± 0.071,1.01 ± 0.13,1.04 ± 0.12,1.06 ± 0.19,1.06 ± 0.19
RNF169 (UniProt Q8NCN4),1.03 ± 0.026,1.12 ± 0.11,1.15 ± 0.11,1.25 ± 0.12,1.44 ± 0.19,1.36 ± 0.083,1.51 ± 0.19,1.52 ± 0.15
UniProt Q8TEB1 and related entries,0.991 ± 0.056,1.02 ± 0.033,0.948 ± 0.076,0.97 ± 0.046,0.938 ± 0.063,0.961 ± 0.033,0.96 ± 0.089,0.905 ± 0.038
NECAP1 (UniProt Q8NC96),0.993 ± 0.18,0.957 ± 0.12,1.01 ± 0.057,0.972 ± 0.067,0.958 ± 0.14,0.922 ± 0.086,1.01 ± 0.088,0.988 ± 0.092
CXorf38 (UniProt Q8TB03),0.941 ± 0.071,0.897 ± 0.028,0.895 ± 0.021,0.858 ± 0.021,0.865 ± 0.035,0.833 ± 0.01,0.8 ± 0.079,0.813 ± 0.051
UniProt Q8N9N5 and related entries,1.04 ± 0.012,1.01 ± 0.037,0.974 ± 0.025,0.968 ± 0.021,0.966 ± 0.057,0.97 ± 0.02,0.964 ± 0.022,0.952 ± 0.032
RHOT2 (UniProt Q8IXI1),1.02 ± 0.03,1.04 ± 0.041,1 ± 0.047,1 ± 0.076,0.98 ± 0.02,0.988 ± 0.069,0.974 ± 0.039,0.973 ± 0.066
ZDHHC13 (UniProt Q8IUH4),1.09 ± 0.064,1.06 ± 0.086,1.01 ± 0.053,1.01 ± 0.08,0.993 ± 0.056,0.964 ± 0.091,0.982 ± 0.075,0.939 ± 0.082
NFATC2IP (UniProt Q8NCF5),0.994 ± 0.075,0.903 ± 0.096,0.981 ± 0.13,0.962 ± 0.14,0.985 ± 0.12,0.917 ± 0.11,0.959 ± 0.11,0.979 ± 0.12
UniProt Q8TF01,1.15 ± 0.015,1.132 ± 0.0065,1.23 ± 0.031,1.11 ± 0.03,1.18 ± 0.018,1.09 ± 0.12,1.17 ± 0.062,1.07 ± 0.084
UniProt Q8NHM5 and related entries,1.06 ± 0.043,1.08 ± 0.043,0.982 ± 0.051,1.06 ± 0.087,1 ± 0.045,1.09 ± 0.059,1.21 ± 0.075,1.19 ± 0.15
UniProt Q8N4V1 and related entries,0.881 ± 0.12,0.924 ± 0.11,1.02 ± 0.019,0.978 ± 0.12,0.907 ± 0.038,0.995 ± 0.053,0.883 ± 0.11,0.971 ± 0.01

# Looked up one by one from above, two records:
Target,NP40-soluble protein abundance (concentration: 0.1mM),NP40-soluble protein abundance (concentration: 0.5mM),NP40-soluble protein abundance (concentration: 1mM),NP40-soluble protein abundance (concentration: 2mM),NP40-soluble protein abundance (concentration: 4mM),NP40-soluble protein abundance (concentration: 6mM),NP40-soluble protein abundance (concentration: 8mM),NP40-soluble protein abundance (concentration: 10mM)
UniProt Q8NDX1 and related entries,1.01 ± 0.07,1.08 ± 0.1,1.13 ± 0.13,1.07 ± 0.093,1.03 ± 0.11,1.08 ± 0.067,1.14 ± 0.042,1.05 ± 0.14
FAM126B (UniProt Q8IXS8),1.04 ± 0.041,1.15 ± 0.003,1.14 ± 0.028,1.089 ± 0.0094,1.11 ± 0.017,1.14 ± 0.046,1.16 ± 0.015,1.14 ± 0.052
